Assay results from PMC9452783, “PLK1-mediated phosphorylation of PPIL2 regulates HR via CtIP” (Frontiers in Cell and Developmental Biology, 2022).

The chains behind the UniProt entries cited, without tags or fusion partners. Where a name states a change or a piece, a line headed by the entry shows the natural chain unless it says otherwise.
UniProt Q99708: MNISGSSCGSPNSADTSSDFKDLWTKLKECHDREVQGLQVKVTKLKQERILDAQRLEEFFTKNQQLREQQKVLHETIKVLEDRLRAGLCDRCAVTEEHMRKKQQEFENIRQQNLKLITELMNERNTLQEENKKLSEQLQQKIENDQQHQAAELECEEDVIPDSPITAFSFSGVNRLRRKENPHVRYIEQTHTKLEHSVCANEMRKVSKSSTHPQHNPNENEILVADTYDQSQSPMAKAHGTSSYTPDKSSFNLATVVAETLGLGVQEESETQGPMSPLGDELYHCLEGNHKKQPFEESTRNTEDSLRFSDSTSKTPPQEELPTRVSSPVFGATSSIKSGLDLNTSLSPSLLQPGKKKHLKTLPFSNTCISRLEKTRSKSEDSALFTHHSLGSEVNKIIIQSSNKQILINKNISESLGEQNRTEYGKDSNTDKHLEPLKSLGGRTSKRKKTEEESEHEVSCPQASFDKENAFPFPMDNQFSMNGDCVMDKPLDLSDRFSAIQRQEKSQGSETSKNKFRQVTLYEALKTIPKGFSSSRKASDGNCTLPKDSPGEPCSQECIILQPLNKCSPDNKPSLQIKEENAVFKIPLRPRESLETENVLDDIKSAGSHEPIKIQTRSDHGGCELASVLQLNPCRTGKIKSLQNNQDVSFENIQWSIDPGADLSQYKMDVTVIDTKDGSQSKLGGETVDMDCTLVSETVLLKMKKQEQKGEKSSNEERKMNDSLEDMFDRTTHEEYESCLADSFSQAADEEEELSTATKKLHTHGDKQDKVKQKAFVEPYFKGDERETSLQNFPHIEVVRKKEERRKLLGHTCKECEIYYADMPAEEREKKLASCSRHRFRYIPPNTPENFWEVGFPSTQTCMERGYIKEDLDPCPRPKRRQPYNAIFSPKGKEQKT
UniProt Q13356: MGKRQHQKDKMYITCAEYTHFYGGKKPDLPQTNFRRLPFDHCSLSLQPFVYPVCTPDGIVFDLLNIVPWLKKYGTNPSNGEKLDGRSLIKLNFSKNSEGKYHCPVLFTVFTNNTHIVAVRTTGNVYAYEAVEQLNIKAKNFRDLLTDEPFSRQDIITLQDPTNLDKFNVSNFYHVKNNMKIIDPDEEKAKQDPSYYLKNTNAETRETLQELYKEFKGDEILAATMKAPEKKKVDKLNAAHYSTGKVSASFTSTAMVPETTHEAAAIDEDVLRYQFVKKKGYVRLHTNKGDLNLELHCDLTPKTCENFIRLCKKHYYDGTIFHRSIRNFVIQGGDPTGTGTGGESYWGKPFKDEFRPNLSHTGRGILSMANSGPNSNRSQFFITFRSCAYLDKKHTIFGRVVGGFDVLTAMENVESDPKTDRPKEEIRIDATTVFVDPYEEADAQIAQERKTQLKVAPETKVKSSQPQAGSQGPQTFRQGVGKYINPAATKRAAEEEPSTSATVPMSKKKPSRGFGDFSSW

Molecular target: Flag-CtIP (human) (UniProt Q99708)
Assay: co-IP; 293T cells cotransfected with Flag- and His-tagged constructs; IP with anti-Flag ("indicated antibodies" for Figures 5A, 7C, 7D), western blot with anti-His and anti-Flag; some panels with or without 2 μM CPT for 1 h, or with MG132 (20 μM, 3 h) and NETN lysis

binding, binds:
His-PPIL2 C8A (from UniProt Q13356)
His-PPIL2 C8D (from UniProt Q13356)
His-PPIL2 N6D (from UniProt Q13356)
His-PPIL2 N6A (from UniProt Q13356)

These are yes or no findings as the source states them, for the method shown. Binding seen in cells or lysates may run through a third protein. A result given as binding can be weak or reduced; the word gives no strength.
